The reference is the same well before dosing, and untreated signal decays as well.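 Labels refer to human fibroblasts, largely primary: uterine (C12385, HUF), lung (H6013), bone (Hs27A), adrenal (HADF), skin (WS1), plus mammary HMF and breast cancer-associated Hs343T. Cancer lines are basal-like or mesenchymal-like triple-negative breast cancer. The paper counts as hits responses shifting over 3x the replicate standard deviation. The tissue of the other fibroblasts is not given here.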
Test system: MDAMB231
Assay: relative JC-1 red fluorescence (viability) vs pre-drug, coculture with fibroblast (fraction); higher = more viable cancer cells
Method: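 JC-1 labelled TNBC cells cocultured 1:1 (1,500 cells each) with CellTrace Violet stained primary or stromal fibroblasts in 384-well plates in FluoroBrite medium, treated with one of 42 anticancer drugs at 0.1, 1, 10 or 100 uM. JC-1 red fluorescence (mitochondrial integrity in cancer cells only) was read by plate reader every 8 h for 72 h. Values are normalised to each well's pre-drug value. The stock of one drug was tenfold lower, so its dose labels may be too high.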

O=C1c2c(O)ccc(O)c2C(=O)c2c(NCCNCCO)ccc(NCCNCCO)c21 [Mitoxantrone]
relative JC-1 red fluorescence
Settings | 8 h | 16 h | 24 h | 32 h | 40 h | 48 h | 56 h | 64 h | 72 h
1 µM, coculture fibroblast: C12385 | – | – | – | – | – | 0.295 | 0.294 | 0.326 | 0.326
1 µM, coculture fibroblast: H6013 | – | – | – | – | – | 0.51 | 0.51 | 0.501 | 0.462
1 µM, coculture fibroblast: H6019 | – | – | – | – | – | 0.4207 | 0.4 | 0.406 | 0.383
1 µM, coculture fibroblast: H6076 | – | – | – | – | – | 0.664 | 0.6562 | 0.628 | 0.614
1 µM, coculture fibroblast: H6231 | – | – | – | – | – | 0.643 | 0.617 | 0.604 | 0.584
1 µM, coculture fibroblast: HADF | – | – | – | – | – | 0.463 | 0.459 | 0.466 | 0.431
1 µM, coculture fibroblast: HCFa | – | – | – | – | – | 0.582 | 0.576 | 0.565 | 0.526
1 µM, coculture fibroblast: HCPF | – | – | – | – | – | 0.586 | 0.574 | 0.556 | 0.548
1 µM, coculture fibroblast: HHSteC | – | – | – | – | 0.629 | 0.63 | 0.617 | 0.623 | 0.592
1 µM, coculture fibroblast: HMF | – | – | – | – | 0.654 | 0.649 | 0.651 | 0.645 | 0.64
1 µM, coculture fibroblast: HPFa | – | – | – | – | 0.583 | 0.572 | 0.552 | 0.553 | 0.52
1 µM, coculture fibroblast: HUF | – | – | – | – | 0.457 | 0.453 | 0.43 | 0.438 | 0.425
1 µM, coculture fibroblast: Hs5 | – | – | – | – | 0.647 | 0.606 | 0.584 | 0.578 | 0.549
1 µM, coculture fibroblast: Hs27A | – | – | – | – | 0.604 | 0.586 | 0.598 | 0.603 | 0.564
1 µM, coculture fibroblast: Hs343T | – | – | – | – | 0.553 | 0.52 | 0.487 | 0.47 | 0.449
1 µM, coculture fibroblast: WS1 | – | – | – | – | 0.409 | 0.393 | 0.386 | 0.4 | 0.386
10 µM, coculture fibroblast: C12385 | 0.0974 | 0.0608 | 0.0746 | 0.0578 | 0.0415 | 0.0642 | 0.0571 | 0.0495 | 0.0472
10 µM, coculture fibroblast: H6013 | 0.437 | 0.416 | 0.428 | 0.53 | 0.538 | 0.575 | 0.53 | 0.488 | 0.397
10 µM, coculture fibroblast: H6019 | 0.145 | 0.141 | 0.1817 | 0.112 | 0.0809 | 0.0666 | 0.0471 | 0.043 | 0.0163
10 µM, coculture fibroblast: H6076 | 0.572 | 0.5273 | 0.541 | 0.586 | 0.601 | 0.557 | 0.501 | 0.435 | 0.372
10 µM, coculture fibroblast: H6231 | 0.51 | 0.393 | 0.354 | 0.394 | 0.384 | 0.439 | 0.432 | 0.433 | 0.377
10 µM, coculture fibroblast: HADF | 0.33 | 0.2823 | 0.271 | 0.34 | 0.391 | 0.47 | 0.463 | 0.455 | 0.376
10 µM, coculture fibroblast: HCFa | 0.371 | 0.3417 | 0.3353 | 0.358 | 0.4039 | 0.461 | 0.51 | 0.517 | 0.454
10 µM, coculture fibroblast: HCPF | 0.587 | 0.481 | 0.417 | 0.417 | 0.42 | 0.417 | 0.417 | 0.396 | 0.357
10 µM, coculture fibroblast: HHSteC | 0.414 | 0.404 | 0.401 | 0.479 | 0.542 | 0.554 | 0.545 | 0.509 | 0.409
10 µM, coculture fibroblast: HMF | 0.535 | 0.423 | 0.425 | 0.46 | 0.452 | 0.41 | 0.4 | 0.373 | 0.332
10 µM, coculture fibroblast: HPFa | 0.378 | 0.38 | 0.358 | 0.413 | 0.4744 | 0.529 | 0.511 | 0.514 | 0.435
10 µM, coculture fibroblast: HUF | 0.158 | 0.117 | 0.182 | 0.101 | 0.104 | 0.114 | 0.0753 | 0.0659 | 0.0401
10 µM, coculture fibroblast: Hs5 | 0.562 | 0.508 | 0.511 | 0.544 | 0.564 | 0.513 | 0.465 | 0.374 | 0.281
10 µM, coculture fibroblast: Hs27A | 0.458 | 0.433 | 0.456 | 0.534 | 0.678 | 0.746 | 0.748 | 0.678 | 0.571
10 µM, coculture fibroblast: Hs343T | 0.547 | 0.464 | 0.4493 | 0.492 | 0.484 | 0.463 | 0.43 | 0.395 | 0.359
10 µM, coculture fibroblast: WS1 | 0.141 | 0.09 | 0.111 | 0.0678 | 0.0704 | 0.0627 | 0.0469 | 0.0588 | 0.0341

Reference: the supplement of paper PMC6078165
